Laboratory results as given in PubChem BioAssay AID651635 (National Center for Advancing Translational Sciences (NCATS), 2012).
In all, about 400,000 compounds went through this assay and about 1,900 (0.47%) were called active. These results got no clear call from the source, so the numbers are uncertain. The call rests on the fitted dose curve; in most records, active means well fitted cell-killing curve with a large enough effect; inconclusive means small, poorly fitted or top-dose-only effect, or effect the other way; inactive means no such curve, though single readings can be large or run the other way.

Experiment: Viability Counterscreen for Primary qHTS for Inhibitors of ATXN expression; further: nearly all actives have a fitted effect of over 40% in size
Details: S2 cells (HEK-293 line with an ATXN2-luciferase reporter) viability, CellTiter-Fluor protease fluorescence, 24 h
Potency means the concentration at half of the fitted maximal effect.

Row | Compound | Potency
1 | CP(=O)(OCCOc1ccccc1)OCCOc1ccccc1 | inconclusive: 0.0377 µM
2 | Cc1c(NP(C)(=O)Oc2ccc(C(C)C)cc2)c(=O)n(-c2ccccc2)n1C (stereo not given) | inconclusive: 0.1 µM
3 | O=[N+]([O-])c1cc([N+](=O)[O-])c(Nc2ccccn2)c([N+](=O)[O-])c1 | inconclusive: 29.9 µM
4 | CN(C)C(=O)c1c([N+](=O)[O-])cc([N+](=O)[O-])cc1[N+](=O)[O-] | inconclusive: 31.6 µM
5 | COc1ccccc1OP(C)(=O)Nc1c(C)n(C)n(-c2ccccc2)c1=O (stereo not given) | inconclusive: 10 µM
6 | CCOC(=O)c1ccc(NP(C)(=O)Oc2ccc(Cl)cc2)cc1 (stereo not given) | inconclusive: 3.55 µM
7 | Cc1cc(-c2cccc3ccccc23)c(C)cn1.O=[N+]([O-])c1cc([N+](=O)[O-])c(O)c([N+](=O)[O-])c1 | inconclusive: 35.5 µM
8 | C/C1=C2N=C(/C=C3N=C(/C(C)=C4\[N-][C@@](C)([C@@H]5N=C1[C@](C)(CCC(=O)NC[C@@H](C)OP(=O)([O-])O[C@H]1[C@@H](O)[C@@H](n6cnc7cc(C)c(C)cc76)O[C@@H]1CO)[C@H]5CC(N)=O)[C@@](C)(CC(N)=O)[C@@H]4CCC(N)=O)[C@@](C)(CC(N)=O)[C@@H]\3CCC(N)=O)C(C)(C)[C@@H]/2CCC(N)=O.[C-]#N.[Co+3] | inconclusive: 20 µM
9 | CC(C)c1ccc(OP(C)(=O)Nc2ccc(SC(F)(F)F)cc2)cc1 (stereo not given) | inconclusive: 39.8 µM
10 | COc1ccc(OP(C)(=O)Nc2ccc(SC(F)(F)F)cc2)cc1 (stereo not given) | inconclusive: 23.8 µM
11 | CC1CCOC(=O)C=CC=CC(=O)OC2CC3OC4C5OC5(C)CCC4(COC(=O)C1O)C2(C)C31CO1 (stereo not given) | inconclusive: 37.7 µM
12 | O=[N+]([O-])c1cc([N+](=O)[O-])c(Nc2nnnn2CCO)c([N+](=O)[O-])c1 | inconclusive: 17.8 µM
13 | CCOC(=O)c1ccc(NP(C)(=O)Oc2ccccc2)cc1 (stereo not given) | inconclusive: 11.2 µM
14 | O=[N+]([O-])c1cc([N+](=O)[O-])c(Nc2cccnc2)c([N+](=O)[O-])c1 | inconclusive: 31.6 µM
15 | CC(C)(C)c1ccc(OP(C)(=O)Nc2ccc(SC(F)(F)F)cc2)cc1 (stereo not given) | inconclusive: 25.1 µM
